Results from patent publication US20100204099A1 (ALBERT EINSTEIN COLLEGE OF MEDICINE OF YESHIVA UNIVERSITY, published 2010).
No constants are given. Whether binding was seen depends on the method and setting. Some binding calls cover weakened binding; strength is not graded here.

Protein sequences, listed by entry. Tags and fused reporters are not part of them. Lines headed by an entry give the natural chain unless they say otherwise; changes in a name come on top. Chains listed by the source or under a name are the forms on record and can include a tag or linker. Residues count along the entry.
UniProt P05019, residues 49-118: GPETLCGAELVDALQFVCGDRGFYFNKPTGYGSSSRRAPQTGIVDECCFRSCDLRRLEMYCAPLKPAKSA
IGF binding protein-3 (IGFBP-3) (P17936, residues 28-291): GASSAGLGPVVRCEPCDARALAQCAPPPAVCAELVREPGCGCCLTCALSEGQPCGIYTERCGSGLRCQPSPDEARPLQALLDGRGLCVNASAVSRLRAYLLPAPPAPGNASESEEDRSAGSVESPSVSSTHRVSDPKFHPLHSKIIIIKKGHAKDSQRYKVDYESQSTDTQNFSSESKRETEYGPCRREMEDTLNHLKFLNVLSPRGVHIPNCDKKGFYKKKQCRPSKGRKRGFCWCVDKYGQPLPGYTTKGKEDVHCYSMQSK
NLS mutant of IGFBP-3 (P17936, form named): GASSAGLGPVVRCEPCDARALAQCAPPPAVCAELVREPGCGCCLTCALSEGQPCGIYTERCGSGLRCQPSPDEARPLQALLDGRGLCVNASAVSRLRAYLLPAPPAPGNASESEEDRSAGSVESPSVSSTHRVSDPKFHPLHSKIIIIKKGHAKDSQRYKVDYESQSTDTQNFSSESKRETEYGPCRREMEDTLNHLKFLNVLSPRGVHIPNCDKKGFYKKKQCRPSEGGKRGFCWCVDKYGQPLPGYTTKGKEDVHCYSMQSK

Target: 125I-labeled IGF-1 (UniProt P05019)
Test: Western ligand blot with 125I-labeled IGF-1

binding | Substance
binds | IGF binding protein-3 (IGFBP-3) (from UniProt P17936 28-291)
binds | NLS mutant of IGFBP-3 (from UniProt P17936 28-291)
